Experimental data: PMC6575207
No constants are given. Whether binding was seen depends on the method and setting. In cells and extracts the contact can be indirect. Some entries that bind do so weakly or less than the wild type.

Sequences of proteins named here, by UniProt entry; tags and fusion partners are left off.
UniProt P56524: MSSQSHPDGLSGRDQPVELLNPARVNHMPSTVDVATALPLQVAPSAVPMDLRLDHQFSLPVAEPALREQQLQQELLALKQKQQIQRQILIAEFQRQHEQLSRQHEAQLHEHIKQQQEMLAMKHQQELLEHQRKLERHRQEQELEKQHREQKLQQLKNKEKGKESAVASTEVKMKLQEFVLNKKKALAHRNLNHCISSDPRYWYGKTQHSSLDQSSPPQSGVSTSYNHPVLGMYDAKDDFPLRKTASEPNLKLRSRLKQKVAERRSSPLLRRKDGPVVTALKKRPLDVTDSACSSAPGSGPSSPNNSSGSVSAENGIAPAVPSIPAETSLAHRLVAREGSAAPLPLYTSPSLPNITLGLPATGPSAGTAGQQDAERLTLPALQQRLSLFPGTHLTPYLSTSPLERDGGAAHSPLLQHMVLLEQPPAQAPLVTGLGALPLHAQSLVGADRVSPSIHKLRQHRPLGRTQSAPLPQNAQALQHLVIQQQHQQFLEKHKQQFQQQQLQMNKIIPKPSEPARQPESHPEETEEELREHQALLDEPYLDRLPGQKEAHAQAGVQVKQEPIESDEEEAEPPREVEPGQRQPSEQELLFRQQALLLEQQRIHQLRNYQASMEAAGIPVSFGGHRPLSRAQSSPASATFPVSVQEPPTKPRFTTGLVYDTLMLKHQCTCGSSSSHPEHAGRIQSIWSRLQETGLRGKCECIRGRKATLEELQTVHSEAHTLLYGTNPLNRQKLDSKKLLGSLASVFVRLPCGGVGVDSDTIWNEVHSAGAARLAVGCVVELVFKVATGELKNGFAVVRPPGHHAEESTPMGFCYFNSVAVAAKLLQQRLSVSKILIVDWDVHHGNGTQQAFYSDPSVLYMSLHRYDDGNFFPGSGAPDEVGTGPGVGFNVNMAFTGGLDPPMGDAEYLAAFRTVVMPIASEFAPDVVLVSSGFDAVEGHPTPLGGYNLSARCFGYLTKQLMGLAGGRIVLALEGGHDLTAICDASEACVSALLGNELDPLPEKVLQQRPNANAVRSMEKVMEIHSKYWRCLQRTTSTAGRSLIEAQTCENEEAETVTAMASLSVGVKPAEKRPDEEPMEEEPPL
UniProt Q00978: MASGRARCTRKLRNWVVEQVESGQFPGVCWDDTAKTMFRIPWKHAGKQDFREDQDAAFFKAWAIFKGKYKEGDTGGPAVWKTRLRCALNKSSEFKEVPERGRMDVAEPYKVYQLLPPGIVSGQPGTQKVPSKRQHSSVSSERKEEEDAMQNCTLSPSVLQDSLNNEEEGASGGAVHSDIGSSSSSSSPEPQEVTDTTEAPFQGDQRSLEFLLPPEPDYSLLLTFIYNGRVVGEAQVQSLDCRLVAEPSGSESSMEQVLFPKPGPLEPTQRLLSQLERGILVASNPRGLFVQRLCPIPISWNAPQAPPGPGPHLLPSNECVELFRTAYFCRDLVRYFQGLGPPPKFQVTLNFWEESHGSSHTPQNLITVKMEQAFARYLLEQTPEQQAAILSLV
UniProt P52630: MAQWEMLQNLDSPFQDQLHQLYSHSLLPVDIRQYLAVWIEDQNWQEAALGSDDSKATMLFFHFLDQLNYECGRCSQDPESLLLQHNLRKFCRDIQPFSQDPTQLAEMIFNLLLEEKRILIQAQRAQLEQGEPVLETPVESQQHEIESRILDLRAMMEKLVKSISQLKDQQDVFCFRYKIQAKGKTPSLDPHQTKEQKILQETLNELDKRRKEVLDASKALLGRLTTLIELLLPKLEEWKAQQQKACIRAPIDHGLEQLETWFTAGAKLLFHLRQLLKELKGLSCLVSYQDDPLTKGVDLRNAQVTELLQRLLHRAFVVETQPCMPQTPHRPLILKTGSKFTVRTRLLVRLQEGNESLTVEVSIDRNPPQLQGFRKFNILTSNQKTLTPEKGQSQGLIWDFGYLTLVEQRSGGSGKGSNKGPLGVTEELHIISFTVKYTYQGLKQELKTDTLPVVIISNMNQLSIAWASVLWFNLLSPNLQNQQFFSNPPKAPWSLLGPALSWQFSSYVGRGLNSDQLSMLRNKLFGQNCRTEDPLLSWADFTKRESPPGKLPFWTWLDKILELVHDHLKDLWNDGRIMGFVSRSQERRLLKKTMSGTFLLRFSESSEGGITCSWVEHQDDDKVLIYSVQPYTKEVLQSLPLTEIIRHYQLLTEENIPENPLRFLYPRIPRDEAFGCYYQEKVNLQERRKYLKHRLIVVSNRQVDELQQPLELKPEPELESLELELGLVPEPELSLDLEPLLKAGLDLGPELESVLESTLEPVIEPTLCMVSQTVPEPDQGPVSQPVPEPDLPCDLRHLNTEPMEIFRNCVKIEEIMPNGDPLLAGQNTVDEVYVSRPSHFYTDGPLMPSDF
UniProt Q13547: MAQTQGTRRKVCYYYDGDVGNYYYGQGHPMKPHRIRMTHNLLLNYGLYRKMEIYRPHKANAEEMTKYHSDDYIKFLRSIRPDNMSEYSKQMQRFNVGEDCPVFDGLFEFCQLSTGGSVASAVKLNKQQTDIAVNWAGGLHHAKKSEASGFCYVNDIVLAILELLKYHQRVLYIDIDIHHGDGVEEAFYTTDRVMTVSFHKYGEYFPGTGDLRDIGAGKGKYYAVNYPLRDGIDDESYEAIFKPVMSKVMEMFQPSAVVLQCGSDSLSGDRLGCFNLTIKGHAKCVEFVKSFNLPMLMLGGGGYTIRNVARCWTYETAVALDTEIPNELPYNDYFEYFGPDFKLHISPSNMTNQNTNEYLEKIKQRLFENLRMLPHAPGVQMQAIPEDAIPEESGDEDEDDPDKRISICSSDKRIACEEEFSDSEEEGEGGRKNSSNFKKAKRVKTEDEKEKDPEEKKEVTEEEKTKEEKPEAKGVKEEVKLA

Legend:
[1] = biological target: endogenous HDAC4 (human (endogenous in HEK-293T)) (UniProt P56524); test: co-IP; endogenous levels; lysate of 1 x 10^7 HEK-293T cells incubated with mouse anti-HDAC4 or mouse IgG for 2 h, then Protein G Sepharose overnight; immunoblot for STAT2 and MEF2 (Fig. 5B)
[2] = biological target: TAP-tagged IRF9 (UniProt Q00978); test: co-IP; HEK-293T cotransfected with TAP-tagged IRF9 and HA-tagged STAT1 or STAT2 or FLAG-tagged HDAC1 or HDAC4, 24 h; lysates precipitated via the streptavidin-epitope; immunoblot (Fig. 5D)

binding [1] | binding [2] | Substance
binds | – | endogenous STAT2 (signal transducer and activator of transcription 2) (from UniProt P52630 1-851)
– | binds | FLAG-tagged HDAC1 (histone deacetylase 1) (from UniProt Q13547 1-482)
